The list shows a part of the results.
Compound: Cc1cc(ccc1-c1ccccc1)C(=O)N1CCCN(CC1)C(=O)CCl [compound 10]
Experiment: probe-labelled cysteine peptide fold change vs DMSO (competition) (log2 fold change); higher = less target engagement (more negative = stronger competition)
Conditions: THP-1, incubation time: 4 h
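Note: competitive profiling in live THP-1 cells: cysteine peptides tagged with an iodoacetamide desthiobiotin (IA-DTB) probe, intensity after compound treatment relative to DMSO-treated cells.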

Protein sequences, listed by entry. Tags and fused reporters are not part of them. Lines headed by an entry give the natural chain unless they say otherwise; changes in a name come on top.
UniProt P13693: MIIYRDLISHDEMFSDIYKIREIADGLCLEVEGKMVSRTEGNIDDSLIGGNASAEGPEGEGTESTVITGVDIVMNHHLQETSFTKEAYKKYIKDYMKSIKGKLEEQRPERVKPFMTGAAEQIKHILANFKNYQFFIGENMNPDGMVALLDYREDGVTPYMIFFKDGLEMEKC
UniProt P29144: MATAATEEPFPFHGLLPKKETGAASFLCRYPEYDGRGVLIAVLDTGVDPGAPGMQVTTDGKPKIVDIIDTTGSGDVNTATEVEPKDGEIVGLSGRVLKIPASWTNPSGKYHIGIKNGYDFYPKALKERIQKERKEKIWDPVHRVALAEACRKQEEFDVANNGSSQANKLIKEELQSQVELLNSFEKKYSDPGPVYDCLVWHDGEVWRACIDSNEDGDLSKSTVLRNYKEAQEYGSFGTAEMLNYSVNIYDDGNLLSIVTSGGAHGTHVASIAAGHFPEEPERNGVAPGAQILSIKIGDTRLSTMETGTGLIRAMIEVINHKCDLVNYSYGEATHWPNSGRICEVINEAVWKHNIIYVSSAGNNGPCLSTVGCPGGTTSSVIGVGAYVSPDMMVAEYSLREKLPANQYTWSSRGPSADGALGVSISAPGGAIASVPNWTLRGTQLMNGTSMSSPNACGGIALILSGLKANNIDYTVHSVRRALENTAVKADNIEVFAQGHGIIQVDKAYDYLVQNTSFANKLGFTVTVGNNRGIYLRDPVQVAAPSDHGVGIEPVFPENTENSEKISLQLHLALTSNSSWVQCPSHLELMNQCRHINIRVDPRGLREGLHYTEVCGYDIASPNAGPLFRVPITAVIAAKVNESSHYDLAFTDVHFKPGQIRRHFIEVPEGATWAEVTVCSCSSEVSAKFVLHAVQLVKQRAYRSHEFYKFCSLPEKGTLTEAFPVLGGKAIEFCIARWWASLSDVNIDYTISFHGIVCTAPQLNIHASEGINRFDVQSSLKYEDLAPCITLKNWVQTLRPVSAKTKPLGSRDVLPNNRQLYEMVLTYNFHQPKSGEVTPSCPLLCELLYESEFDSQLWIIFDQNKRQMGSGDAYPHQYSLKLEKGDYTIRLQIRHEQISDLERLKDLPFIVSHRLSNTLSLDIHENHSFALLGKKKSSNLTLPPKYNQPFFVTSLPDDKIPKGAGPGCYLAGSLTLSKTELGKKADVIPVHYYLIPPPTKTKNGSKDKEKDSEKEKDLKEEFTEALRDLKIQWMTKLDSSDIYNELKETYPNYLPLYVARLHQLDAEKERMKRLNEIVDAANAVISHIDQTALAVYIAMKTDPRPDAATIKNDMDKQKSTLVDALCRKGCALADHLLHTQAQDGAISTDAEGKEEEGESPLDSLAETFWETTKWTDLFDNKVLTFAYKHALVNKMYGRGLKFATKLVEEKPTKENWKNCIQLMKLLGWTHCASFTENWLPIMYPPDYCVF
UniProt O15164: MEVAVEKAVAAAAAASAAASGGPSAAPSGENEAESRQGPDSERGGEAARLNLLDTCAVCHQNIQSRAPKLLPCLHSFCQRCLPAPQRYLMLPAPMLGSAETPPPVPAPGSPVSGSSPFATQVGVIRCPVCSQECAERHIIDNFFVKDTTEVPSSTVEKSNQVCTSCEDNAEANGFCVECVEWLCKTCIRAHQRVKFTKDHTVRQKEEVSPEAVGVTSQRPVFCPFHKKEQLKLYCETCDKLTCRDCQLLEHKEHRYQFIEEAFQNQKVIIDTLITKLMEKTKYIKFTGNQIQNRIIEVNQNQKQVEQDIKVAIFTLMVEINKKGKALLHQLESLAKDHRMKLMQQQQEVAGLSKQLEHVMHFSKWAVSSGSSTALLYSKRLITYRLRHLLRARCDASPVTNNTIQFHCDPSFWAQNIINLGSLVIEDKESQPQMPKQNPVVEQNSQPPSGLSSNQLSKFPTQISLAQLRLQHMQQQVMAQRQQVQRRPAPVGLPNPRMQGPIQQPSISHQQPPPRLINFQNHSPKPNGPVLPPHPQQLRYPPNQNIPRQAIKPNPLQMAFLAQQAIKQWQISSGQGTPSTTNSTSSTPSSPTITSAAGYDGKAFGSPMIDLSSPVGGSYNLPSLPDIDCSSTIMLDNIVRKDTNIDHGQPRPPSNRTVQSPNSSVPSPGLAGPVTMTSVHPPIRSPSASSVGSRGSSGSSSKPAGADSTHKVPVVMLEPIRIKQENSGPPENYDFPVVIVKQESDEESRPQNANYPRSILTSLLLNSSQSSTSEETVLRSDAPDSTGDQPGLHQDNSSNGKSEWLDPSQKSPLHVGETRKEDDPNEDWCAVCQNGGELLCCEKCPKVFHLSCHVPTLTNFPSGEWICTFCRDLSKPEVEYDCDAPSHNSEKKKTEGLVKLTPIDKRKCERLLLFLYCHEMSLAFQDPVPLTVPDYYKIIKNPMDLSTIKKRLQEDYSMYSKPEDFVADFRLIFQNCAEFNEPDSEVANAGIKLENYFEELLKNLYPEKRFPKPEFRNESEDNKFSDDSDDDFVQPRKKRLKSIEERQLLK
UniProt Q9Y4K3: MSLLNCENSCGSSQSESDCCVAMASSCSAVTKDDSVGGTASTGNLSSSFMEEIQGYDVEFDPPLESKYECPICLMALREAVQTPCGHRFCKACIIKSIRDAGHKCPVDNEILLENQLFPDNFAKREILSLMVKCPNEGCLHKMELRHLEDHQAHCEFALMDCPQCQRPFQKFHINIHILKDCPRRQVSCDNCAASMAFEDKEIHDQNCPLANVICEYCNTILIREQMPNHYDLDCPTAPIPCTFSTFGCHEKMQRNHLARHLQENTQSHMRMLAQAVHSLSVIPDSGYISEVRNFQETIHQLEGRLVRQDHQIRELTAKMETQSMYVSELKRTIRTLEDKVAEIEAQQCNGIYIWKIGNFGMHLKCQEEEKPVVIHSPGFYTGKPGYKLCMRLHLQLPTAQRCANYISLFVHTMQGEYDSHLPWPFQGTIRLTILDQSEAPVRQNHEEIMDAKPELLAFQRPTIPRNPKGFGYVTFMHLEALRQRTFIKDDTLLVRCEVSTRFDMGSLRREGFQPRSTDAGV
UniProt Q7Z2T5: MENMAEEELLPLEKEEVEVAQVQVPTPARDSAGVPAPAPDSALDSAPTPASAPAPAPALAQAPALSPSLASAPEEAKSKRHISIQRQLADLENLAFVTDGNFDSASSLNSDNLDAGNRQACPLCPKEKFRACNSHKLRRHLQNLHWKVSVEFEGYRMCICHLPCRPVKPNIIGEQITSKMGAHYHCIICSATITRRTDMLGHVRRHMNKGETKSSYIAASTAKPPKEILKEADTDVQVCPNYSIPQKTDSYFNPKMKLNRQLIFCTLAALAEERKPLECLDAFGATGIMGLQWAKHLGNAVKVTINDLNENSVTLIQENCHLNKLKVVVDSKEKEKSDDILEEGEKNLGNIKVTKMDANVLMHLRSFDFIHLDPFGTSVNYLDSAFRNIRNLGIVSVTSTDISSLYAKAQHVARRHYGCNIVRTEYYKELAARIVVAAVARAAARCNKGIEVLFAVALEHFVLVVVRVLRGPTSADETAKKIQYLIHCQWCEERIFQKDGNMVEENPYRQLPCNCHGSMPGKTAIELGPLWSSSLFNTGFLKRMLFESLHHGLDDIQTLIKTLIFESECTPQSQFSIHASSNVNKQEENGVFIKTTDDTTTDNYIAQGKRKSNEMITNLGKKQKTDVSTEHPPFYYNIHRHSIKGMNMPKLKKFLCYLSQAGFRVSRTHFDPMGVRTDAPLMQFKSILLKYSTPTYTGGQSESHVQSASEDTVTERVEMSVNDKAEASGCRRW
UniProt Q96Q05, whole entry, looked up: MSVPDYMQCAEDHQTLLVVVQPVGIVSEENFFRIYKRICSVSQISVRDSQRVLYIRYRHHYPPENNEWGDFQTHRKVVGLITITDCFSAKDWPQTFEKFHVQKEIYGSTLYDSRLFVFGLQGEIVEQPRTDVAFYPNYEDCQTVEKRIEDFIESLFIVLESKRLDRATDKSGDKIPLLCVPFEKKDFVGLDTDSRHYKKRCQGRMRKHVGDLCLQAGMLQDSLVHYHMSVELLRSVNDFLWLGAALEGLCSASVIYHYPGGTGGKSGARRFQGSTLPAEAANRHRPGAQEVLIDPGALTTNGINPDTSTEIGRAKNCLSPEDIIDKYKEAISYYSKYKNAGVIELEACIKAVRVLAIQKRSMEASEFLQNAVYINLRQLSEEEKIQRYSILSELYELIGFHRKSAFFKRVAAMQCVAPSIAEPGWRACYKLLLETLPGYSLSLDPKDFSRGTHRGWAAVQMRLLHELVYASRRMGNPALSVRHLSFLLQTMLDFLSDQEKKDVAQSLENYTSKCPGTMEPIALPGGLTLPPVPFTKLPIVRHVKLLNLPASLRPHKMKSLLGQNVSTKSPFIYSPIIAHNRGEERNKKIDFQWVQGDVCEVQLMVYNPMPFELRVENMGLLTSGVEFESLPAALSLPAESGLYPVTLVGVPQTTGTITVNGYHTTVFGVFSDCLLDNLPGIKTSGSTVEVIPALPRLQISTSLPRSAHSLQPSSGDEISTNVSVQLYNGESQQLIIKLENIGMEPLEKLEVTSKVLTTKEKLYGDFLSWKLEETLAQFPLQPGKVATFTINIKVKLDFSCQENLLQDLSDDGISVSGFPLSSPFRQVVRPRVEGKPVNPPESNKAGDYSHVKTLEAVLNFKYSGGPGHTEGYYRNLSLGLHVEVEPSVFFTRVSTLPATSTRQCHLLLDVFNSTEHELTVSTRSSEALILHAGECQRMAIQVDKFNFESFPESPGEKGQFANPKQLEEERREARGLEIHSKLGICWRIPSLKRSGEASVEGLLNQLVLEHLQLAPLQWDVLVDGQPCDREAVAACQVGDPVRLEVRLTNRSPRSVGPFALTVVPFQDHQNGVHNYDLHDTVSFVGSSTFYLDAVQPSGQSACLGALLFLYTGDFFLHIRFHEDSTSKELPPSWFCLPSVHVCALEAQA
UniProt Q9C037: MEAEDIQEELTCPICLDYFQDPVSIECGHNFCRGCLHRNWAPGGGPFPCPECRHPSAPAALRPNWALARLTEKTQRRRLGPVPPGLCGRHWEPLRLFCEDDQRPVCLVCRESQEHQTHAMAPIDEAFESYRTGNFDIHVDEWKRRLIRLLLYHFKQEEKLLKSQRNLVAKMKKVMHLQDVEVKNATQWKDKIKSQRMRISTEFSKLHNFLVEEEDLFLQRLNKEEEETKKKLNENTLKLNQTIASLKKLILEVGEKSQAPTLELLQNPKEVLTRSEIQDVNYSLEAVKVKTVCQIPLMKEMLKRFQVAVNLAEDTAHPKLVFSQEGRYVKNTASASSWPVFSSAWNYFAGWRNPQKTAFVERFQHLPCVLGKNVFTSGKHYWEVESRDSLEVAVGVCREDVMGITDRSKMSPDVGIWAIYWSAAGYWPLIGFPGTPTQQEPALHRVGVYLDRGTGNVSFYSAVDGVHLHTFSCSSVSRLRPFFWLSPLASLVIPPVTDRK
UniProt Q86W33: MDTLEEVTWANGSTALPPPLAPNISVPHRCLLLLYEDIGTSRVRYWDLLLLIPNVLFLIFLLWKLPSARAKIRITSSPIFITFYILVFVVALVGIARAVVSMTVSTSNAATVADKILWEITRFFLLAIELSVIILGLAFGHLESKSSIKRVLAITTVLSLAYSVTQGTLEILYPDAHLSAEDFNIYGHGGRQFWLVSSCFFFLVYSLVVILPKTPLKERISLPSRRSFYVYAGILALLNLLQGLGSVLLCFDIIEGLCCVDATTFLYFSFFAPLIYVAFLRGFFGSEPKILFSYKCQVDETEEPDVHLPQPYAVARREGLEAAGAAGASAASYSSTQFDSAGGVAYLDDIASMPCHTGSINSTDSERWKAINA
UniProt Q4KMQ1: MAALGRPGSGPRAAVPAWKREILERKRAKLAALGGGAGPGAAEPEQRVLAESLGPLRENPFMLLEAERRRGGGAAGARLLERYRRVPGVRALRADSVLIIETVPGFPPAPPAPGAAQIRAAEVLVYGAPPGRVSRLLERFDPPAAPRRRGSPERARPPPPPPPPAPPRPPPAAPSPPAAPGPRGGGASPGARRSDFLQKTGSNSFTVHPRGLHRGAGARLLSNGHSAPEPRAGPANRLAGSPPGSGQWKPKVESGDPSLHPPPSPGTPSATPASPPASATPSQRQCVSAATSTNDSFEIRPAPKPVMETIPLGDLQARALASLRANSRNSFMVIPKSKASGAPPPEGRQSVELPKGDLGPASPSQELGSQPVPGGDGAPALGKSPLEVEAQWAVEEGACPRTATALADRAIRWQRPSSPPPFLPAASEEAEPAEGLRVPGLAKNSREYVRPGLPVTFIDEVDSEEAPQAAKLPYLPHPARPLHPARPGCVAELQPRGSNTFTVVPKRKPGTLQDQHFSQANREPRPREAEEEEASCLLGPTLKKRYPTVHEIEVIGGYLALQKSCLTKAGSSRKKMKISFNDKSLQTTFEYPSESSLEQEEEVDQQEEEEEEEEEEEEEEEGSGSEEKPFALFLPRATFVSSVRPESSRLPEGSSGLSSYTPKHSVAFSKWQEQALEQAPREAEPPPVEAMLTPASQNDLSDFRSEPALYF

Target: TRIOBP_Q9H2D6_2111_SQEDGHIPPGYISQEACER (UniProt Q9H2D6)
- probe-labelled cysteine peptide fold change (10 µM): 0.00515
- probe-labelled cysteine peptide fold change (50 µM): -0.000468

Target: TPT1_P13693_28_IREIADGLCLEVEGK (UniProt P13693)
- probe-labelled cysteine peptide fold change (10 µM): -0.0801
- probe-labelled cysteine peptide fold change (50 µM): 0.0526

Target: TPP1_O14773_365_GLTLLFASGDSGAGCWSVSGR (UniProt O14773)
- probe-labelled cysteine peptide fold change (10 µM): -0.146
- probe-labelled cysteine peptide fold change (50 µM): 0.0356

Target: TRAPPC4_Q9Y296_195_CELFDQNLK (UniProt Q9Y296)
- probe-labelled cysteine peptide fold change (10 µM): 0.0982
- probe-labelled cysteine peptide fold change (50 µM): -0.0304

Target: TPP2_P29144_678+680_RHFIEVPEGATWAEVTVCSCSSEVSAK (UniProt P29144)
- probe-labelled cysteine peptide fold change (10 µM): 0.371
- probe-labelled cysteine peptide fold change (50 µM): -0.315

Target: TRIM24_O15164_223_QKEEVSPEAVGVTSQRPVFCPFHK (UniProt O15164)
- probe-labelled cysteine peptide fold change (10 µM): -0.0447
- probe-labelled cysteine peptide fold change (50 µM): -0.302

Target: TRAF6_Q9Y4K3_134_CPNEGCLHK (UniProt Q9Y4K3)
- probe-labelled cysteine peptide fold change (10 µM): 0.0129
- probe-labelled cysteine peptide fold change (50 µM): -0.0767

Target: TRMT1L_Q7Z2T5_186+189_MGAHYHCIICSATITR (UniProt Q7Z2T5)
- probe-labelled cysteine peptide fold change (10 µM): 0.173
- probe-labelled cysteine peptide fold change (50 µM): -0.0889

Target: TRIM38_O00635_104_ETDQEMSCEEHGEQFHLFCEDEGQLICWR (UniProt O00635)
- probe-labelled cysteine peptide fold change (10 µM): -0.123
- probe-labelled cysteine peptide fold change (50 µM): -0.801

Target: TRAP1_Q12931_527_KDTEVLFCFEQFDELTLLHLR (UniProt Q12931)
- probe-labelled cysteine peptide fold change (10 µM): 0.143
- probe-labelled cysteine peptide fold change (50 µM): 0.314

Target: TRAPPC9_Q96Q05_415_VAAMQCVAPSIAEPGWR (UniProt Q96Q05)
- probe-labelled cysteine peptide fold change (10 µM): 0.026
- probe-labelled cysteine peptide fold change (50 µM): 0.227

Target: TRAPPC6A_O75865_124_FLAFTCGLLR (UniProt O75865)
- probe-labelled cysteine peptide fold change (10 µM): 0.203
- probe-labelled cysteine peptide fold change (50 µM): 0.608

Target: TRMT10A_Q8TBZ6_107_LIIDCSFDHLMVLK (UniProt Q8TBZ6)
- probe-labelled cysteine peptide fold change (10 µM): 0.118
- probe-labelled cysteine peptide fold change (50 µM): -0.028

Target: TRAF6_Q9Y4K3_249_EQMPNHYDLDCPTAPIPCTFSTFGCHEK (UniProt Q9Y4K3)
- probe-labelled cysteine peptide fold change (10 µM): 0.211
- probe-labelled cysteine peptide fold change (50 µM): 0.0398

Target: TRAFD1_O14545_83_KHEETECPLR (UniProt O14545)
- probe-labelled cysteine peptide fold change (10 µM): 0.0302
- probe-labelled cysteine peptide fold change (50 µM): -0.16

Target: TRIM4_Q9C037_293_TVCQIPLMK (UniProt Q9C037)
- probe-labelled cysteine peptide fold change (10 µM): -0.181
- probe-labelled cysteine peptide fold change (50 µM): -0.197

Target: TPRA1_Q86W33_296_CQVDETEEPDVHLPQPYAVAR (UniProt Q86W33)
- probe-labelled cysteine peptide fold change (10 µM): -0.418
- probe-labelled cysteine peptide fold change (50 µM): -1.52

Target: TRIM25_Q14258_174+176+179_LREFFCPEHSECICHICLVEHK (UniProt Q14258)
- probe-labelled cysteine peptide fold change (10 µM): -0.202
- probe-labelled cysteine peptide fold change (50 µM): -0.763

Target: TRMT1L_Q7Z2T5_656_KFLCYLSQAGFR (UniProt Q7Z2T5)
- probe-labelled cysteine peptide fold change (10 µM): -0.549
- probe-labelled cysteine peptide fold change (50 µM): -0.635

Target: TRIM25_Q14258_176+179_LREFFCPEHSECICHICLVEHK (UniProt Q14258)
- probe-labelled cysteine peptide fold change (10 µM): -0.0726
- probe-labelled cysteine peptide fold change (50 µM): -0.283

Target: TRAPPC10_P48553_403_SLGYLCGLVSEK (UniProt P48553)
- probe-labelled cysteine peptide fold change (10 µM): 0.199
- probe-labelled cysteine peptide fold change (50 µM): 0.264

Target: TPP2_P29144_322_CDLVNYSYGEATHWPNSGR (UniProt P29144)
- probe-labelled cysteine peptide fold change (10 µM): 0.253
- probe-labelled cysteine peptide fold change (50 µM): 0.357

Target: TRMT1L_Q7Z2T5_164_MCICHLPCRPVKPNIIGEQITSK (UniProt Q7Z2T5)
- probe-labelled cysteine peptide fold change (10 µM): -0.326
- probe-labelled cysteine peptide fold change (50 µM): 0.212

Target: TRIM4_Q9C037_109_LFCEDDQRPVCLVCR (UniProt Q9C037)
- probe-labelled cysteine peptide fold change (10 µM): 0.00311
- probe-labelled cysteine peptide fold change (50 µM): -0.0281

Target: TRAF3IP3_Q9Y228_135_EQVTGTSSEVFPAQHPPPSGICR (UniProt Q9Y228)
- probe-labelled cysteine peptide fold change (10 µM): 0.0655
- probe-labelled cysteine peptide fold change (50 µM): -0.00386

Target: TRIP6_Q15654_387_GLDGIPFTVDATSQIHCIEDFHR (UniProt Q15654)
- probe-labelled cysteine peptide fold change (10 µM): -0.00816
- probe-labelled cysteine peptide fold change (50 µM): 0.0559

Target: TPP2_P29144_787_YEDLAPCITLK (UniProt P29144)
- probe-labelled cysteine peptide fold change (10 µM): 0.158
- probe-labelled cysteine peptide fold change (50 µM): 0.205

Target: TPRA1_Q86W33_30_CLLLLYEDIGTSR (UniProt Q86W33)
- probe-labelled cysteine peptide fold change (10 µM): -0.475
- probe-labelled cysteine peptide fold change (50 µM): -0.297

Target: TRERF1_Q96PN7_514_LTCSICLK (UniProt Q96PN7)
- probe-labelled cysteine peptide fold change (10 µM): -0.161
- probe-labelled cysteine peptide fold change (50 µM): -0.076

Target: TRIM24_O15164_882_DLSKPEVEYDCDAPSHNSEK (UniProt O15164)
- probe-labelled cysteine peptide fold change (10 µM): -0.0206
- probe-labelled cysteine peptide fold change (50 µM): -0.316

Target: TRMT10C_Q7L0Y3_335_LNLATECLPLDK (UniProt Q7L0Y3)
- probe-labelled cysteine peptide fold change (10 µM): -0.00415
- probe-labelled cysteine peptide fold change (50 µM): 0.0919

Target: TPRN_Q4KMQ1_399_SPLEVEAQWAVEEGACPR (UniProt Q4KMQ1)
- probe-labelled cysteine peptide fold change (10 µM): -0.45
- probe-labelled cysteine peptide fold change (50 µM): -0.589

Target: TRAPPC11_Q7Z392_282_LCFQHNTPLDAIAQFR (UniProt Q7Z392)
- probe-labelled cysteine peptide fold change (10 µM): -0.0525
- probe-labelled cysteine peptide fold change (50 µM): 0.0288

Target: TRAF6_Q9Y4K3_208_EIHDQNCPLANVICEYCNTILIR (UniProt Q9Y4K3)
- probe-labelled cysteine peptide fold change (10 µM): 0.343
- probe-labelled cysteine peptide fold change (50 µM): 0.333

Target: TPRN_Q4KMQ1_489_LPYLPHPARPLHPARPGCVAELQPR (UniProt Q4KMQ1)
- probe-labelled cysteine peptide fold change (10 µM): -0.407
- probe-labelled cysteine peptide fold change (50 µM): -0.401

Target: TRAPPC9_Q96Q05_179_IPLLCVPFEK (UniProt Q96Q05)
- probe-labelled cysteine peptide fold change (10 µM): -0.447
- probe-labelled cysteine peptide fold change (50 µM): 0.54

— the supplement of paper PMC12067093, “Discovery and optimisation of a covalent ligand for TRIM25 and its application to targeted protein ubiquitination” (Chemical Science, 2025)
